Data source: PubChem BioAssay AID743454 (Peter MacCallum Cancer Centre, 2014)
Assay: 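Knock-downs lowering viability or raising caspase 3/7 activity in vorinostat-treated resistant cells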 (primary screen). System: human HCT116-VR colon cancer cells, selected for vorinostat resistance. Knock-down reagent: siRNA pool against human genes, 40 nM siRNA pool. Timing: vorinostat for 24 h, read-out about 72 h after transfection. Challenge: vorinostat at 2.5 µM final. Measured: 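Cell viability by CellTiter-Fluor and caspase 3/7 activity by luminescence, each scaled to mock wells per plate, duplicates averaged, then robust z-scored over all plates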. Scale: viability robust z-score: higher = more viable cells than screen typical; caspase robust z-score: higher = more caspase 3/7 activity than screen typical. Active means: 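Hits are knock-downs in viability class RV1/RV2 or caspase class CA1/CA2, excluding ones that killed cells in the no-drug cell-count arm; hits then retested with single siRNAs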.
Shown is an unselected part of about 18,000 deposited reagents. Over the whole deposit, 450 (2.5%) are marked active. 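Single biological run; no consistent viability z cut-off exists, so the class columns, not z-scores, define the calls.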

With knock-down of GRHL2 (grainyhead like transcription factor 2), the screen gave viability hit class no change; caspase hit class no change; viability robust z-score 0.1; caspase robust z-score 0.86; inactive. GSK3B (glycogen synthase kinase 3 beta) scored viability hit class no change; caspase hit class no change; viability robust z-score 0.48; caspase robust z-score -0.54; inactive. With knock-down of H4C15 (H4 clustered histone 15), the screen gave viability hit class no change; caspase hit class no change; viability robust z-score 0.06; caspase robust z-score -0.31; inactive. ARF1 (ARF GTPase 1) showed viability hit class no change; caspase hit class no change; viability robust z-score -1.77; caspase robust z-score 3; inactive. Depletion of PCDHA13 (protocadherin alpha 13) resulted in: viability hit class no change; caspase hit class no change; viability robust z-score 0.16; caspase robust z-score 1.33; inactive. SLCO2B1 gave viability hit class no change; caspase hit class no change; viability robust z-score 1.42; caspase robust z-score 1.34; inactive.

CCNG2 (cyclin G2) showed viability hit class no change; caspase hit class no change; viability robust z-score 0.08; caspase robust z-score -0.44; inactive. Silencing of STK38 (serine/threonine kinase 38) gave: viability hit class no change; caspase hit class no change; viability robust z-score -0.53; caspase robust z-score -0.65; inactive. TRPV2 gave viability hit class no change; caspase hit class no change; viability robust z-score -1.07; caspase robust z-score 2.35; inactive.

Entries above whose gene name begins with G or g (2):
GRHL2 (grainyhead like transcription factor 2) → viability hit class: no change; caspase hit class: no change; viability robust z-score: 0.1; caspase robust z-score: 0.86; outcome: inactive
GSK3B (glycogen synthase kinase 3 beta) → viability hit class: no change; caspase hit class: no change; viability robust z-score: 0.48; caspase robust z-score: -0.54; outcome: inactive

Continued.
For CDC42BPA (CDC42 binding protein kinase alpha), the values are viability hit class no change; caspase hit class no change; viability robust z-score 1.45; caspase robust z-score 2.63; inactive. UBE2L3 (ubiquitin conjugating enzyme E2 L3) gave viability hit class no change; caspase hit class no change; viability robust z-score -1.6; caspase robust z-score 0.5; inactive. SAT1 (spermidine/spermine N1-acetyltransferase 1) gave viability hit class no change; caspase hit class no change; viability robust z-score -0.3; caspase robust z-score 3.46; inactive. BIRC3 (baculoviral IAP repeat containing 3) showed viability hit class no change; caspase hit class no change; viability robust z-score 0.36; caspase robust z-score -0.78; inactive. KLHL13 (kelch like family member 13) scored viability hit class no change; caspase hit class no change; viability robust z-score -1.04; caspase robust z-score -0.12; inactive.
